{"source": "the supplement of paper PMC3334620", "note": "In all, about 33,000 sequences were measured (“E-score (-0.5 to 0.5)”: median about -0.016, highest 2% from about 0.3 on). The list shows a part of the results."}
{"biological_target": "T1, Yer184c (UniProt P39961)", "T1 sequence": "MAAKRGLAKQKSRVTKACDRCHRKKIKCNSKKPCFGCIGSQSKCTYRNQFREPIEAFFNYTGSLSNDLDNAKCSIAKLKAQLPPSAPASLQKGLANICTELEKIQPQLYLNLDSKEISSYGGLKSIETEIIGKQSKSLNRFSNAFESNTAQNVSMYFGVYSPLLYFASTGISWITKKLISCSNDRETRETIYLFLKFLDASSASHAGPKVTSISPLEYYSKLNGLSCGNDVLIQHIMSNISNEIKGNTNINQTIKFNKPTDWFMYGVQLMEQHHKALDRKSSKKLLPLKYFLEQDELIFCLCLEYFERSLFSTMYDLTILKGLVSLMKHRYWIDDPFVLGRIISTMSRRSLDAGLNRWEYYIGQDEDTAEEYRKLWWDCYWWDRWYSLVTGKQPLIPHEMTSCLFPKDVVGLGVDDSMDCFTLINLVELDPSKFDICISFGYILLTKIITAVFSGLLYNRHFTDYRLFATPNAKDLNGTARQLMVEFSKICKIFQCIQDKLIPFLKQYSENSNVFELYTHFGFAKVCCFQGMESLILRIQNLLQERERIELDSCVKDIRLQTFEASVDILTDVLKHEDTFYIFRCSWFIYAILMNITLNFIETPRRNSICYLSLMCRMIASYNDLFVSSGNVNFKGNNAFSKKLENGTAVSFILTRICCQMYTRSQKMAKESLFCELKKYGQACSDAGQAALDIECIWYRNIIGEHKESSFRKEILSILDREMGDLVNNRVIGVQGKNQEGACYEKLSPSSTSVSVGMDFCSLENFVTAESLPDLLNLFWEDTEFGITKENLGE", "assay": "PBM E-score (8-mer binding enrichment) (E-score (-0.5 to 0.5)); higher = stronger / more preferred TF binding", "conditions": "protein concentration: 100 nM; construct: GST-full length", "procedure": "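Universal 'all 10-mer' protein binding microarrays (Agilent AMADID 015681) probed with GST-tagged S. cerevisiae TFs (full-length or DBD) made by in vitro transcription/translation (PURExpress), about 100-200 nM. Bound TF was detected with fluorescent anti-GST. Each ungapped 8-mer (which stands for itself and its reverse complement) is scored by the PBM enrichment score (E-score), a modified Wilcoxon-Mann-Whitney statistic from -0.5 to +0.5, computed with the Universal PBM Analysis Suite. Scale: above 0.35 generally sequence-specific binding.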"}
{"sequence": "CAATTTCA", "PBM E-score": -0.0518}
{"sequence": "CAGTACTG", "PBM E-score": 0.0131}
{"sequence": "ATGGATGC", "PBM E-score": -0.164}
{"sequence": "ATTAACCG", "PBM E-score": 0.335}
{"sequence": "GACTCTAC", "PBM E-score": -0.215}
{"sequence": "TACTGGAA", "PBM E-score": 0.0649}
{"sequence": "AAGGGGGG", "PBM E-score": -0.374}
{"sequence": "ACTAGGGC", "PBM E-score": -0.235}
{"sequence": "CGCCGCCG", "PBM E-score": 0.196}
{"sequence": "ATCCAAAG", "PBM E-score": 0.0702}
{"sequence": "CACAGCGC", "PBM E-score": -0.0127}
{"sequence": "GTCCTAAC", "PBM E-score": -0.0183}
{"sequence": "CAATCGTA", "PBM E-score": 0.0527}
{"sequence": "ACGTGCAT", "PBM E-score": -0.154}
{"sequence": "CTAGCACA", "PBM E-score": -0.195}
{"sequence": "ACTTCCCC", "PBM E-score": -0.247}
{"sequence": "TTCGACAA", "PBM E-score": 0.0961}
{"sequence": "CGAGTAAC", "PBM E-score": 0.131}
{"sequence": "CCCCAACG", "PBM E-score": -0.0186}
{"sequence": "GGACCCTA", "PBM E-score": -0.187}
{"sequence": "GCTGCGGA", "PBM E-score": 0.038}
{"sequence": "GTGTATCA", "PBM E-score": 0.123}
{"sequence": "CAGCACAC", "PBM E-score": -0.282}
{"sequence": "ACAACAAG", "PBM E-score": -0.0802}
{"sequence": "AAGTTAGG", "PBM E-score": 0.00351}
{"sequence": "AGTGTCAG", "PBM E-score": -0.114}
{"sequence": "ACTCCATC", "PBM E-score": 0.196}
{"sequence": "ACTCGTCA", "PBM E-score": -0.144}
{"sequence": "CTTAGGGA", "PBM E-score": -0.156}
{"sequence": "CAGTAACC", "PBM E-score": 0.0669}
{"sequence": "GGTTATCA", "PBM E-score": -0.0425}
{"sequence": "CTTCTGGC", "PBM E-score": -0.0939}
{"sequence": "AACTTTGT", "PBM E-score": 0.0071}
{"sequence": "ATTCCCCA", "PBM E-score": -0.238}
{"sequence": "CACGGGCA", "PBM E-score": -0.163}
{"sequence": "GTGGTGAA", "PBM E-score": -0.0601}
{"sequence": "TGCAACCA", "PBM E-score": -0.101}
{"sequence": "CCTGGACA", "PBM E-score": -0.164}
{"sequence": "CCTAGTAC", "PBM E-score": -0.085}
{"sequence": "CTGCACCA", "PBM E-score": -0.226}
{"sequence": "CCAGGCAA", "PBM E-score": -0.0874}
{"sequence": "CTTTTGTA", "PBM E-score": 0.0775}
{"sequence": "AGCGAGAC", "PBM E-score": -0.185}
{"sequence": "CTCATGCC", "PBM E-score": -0.186}
{"sequence": "ACGACGGG", "PBM E-score": -0.0926}
{"sequence": "CGCCGTGA", "PBM E-score": 0.064}
{"sequence": "CACGGGGC", "PBM E-score": -0.0464}
{"sequence": "AGAGGTCA", "PBM E-score": -0.126}
{"sequence": "ATATAATA", "PBM E-score": 0.302}
{"sequence": "CACGCGTC", "PBM E-score": 0.0952}
{"sequence": "GGGTAACA", "PBM E-score": -0.166}
{"sequence": "CGCCATGC", "PBM E-score": -0.0946}
{"sequence": "ATCACTTC", "PBM E-score": 0.0149}
{"sequence": "CCCTTAAC", "PBM E-score": -0.289}
{"sequence": "AGACCCTC", "PBM E-score": -0.147}
{"sequence": "CGCCTTAA", "PBM E-score": 0.0453}
{"sequence": "CGTGGAAG", "PBM E-score": 0.057}
{"sequence": "GGGGGACA", "PBM E-score": -0.22}
{"sequence": "CATTCACG", "PBM E-score": 0.138}
{"sequence": "GGTGTGGA", "PBM E-score": -0.0676}
{"sequence": "GGACCTAA", "PBM E-score": 0.0719}
{"sequence": "GCTCTGCC", "PBM E-score": -0.0356}
{"sequence": "CCCTAGCA", "PBM E-score": -0.267}
{"sequence": "CGACGAAG", "PBM E-score": 0.114}
{"sequence": "GTGTAGAA", "PBM E-score": -0.0588}
{"sequence": "CTATAGAC", "PBM E-score": -0.135}
{"sequence": "GGTTTGCA", "PBM E-score": 0.05}
{"sequence": "AGCTTGGG", "PBM E-score": 0.0196}
{"sequence": "ACTACCTA", "PBM E-score": -0.0472}
{"sequence": "GAAATGAA", "PBM E-score": 0.245}
{"sequence": "CAGAATGA", "PBM E-score": 0.0587}
{"sequence": "ATCCTTGC", "PBM E-score": -0.0624}
{"sequence": "AACCATTG", "PBM E-score": -0.0191}
{"sequence": "CCAAAGCA", "PBM E-score": 0.0491}
{"sequence": "AATTACCC", "PBM E-score": -0.0393}
{"sequence": "CCAGAACC", "PBM E-score": -0.081}
{"sequence": "TGGCTCAA", "PBM E-score": -0.0833}
{"sequence": "AATCTGAT", "PBM E-score": 0.0842}
{"sequence": "CCTCTTAC", "PBM E-score": -0.131}
{"sequence": "CGTTCAAA", "PBM E-score": 0.149}
{"sequence": "CATTGCGA", "PBM E-score": -0.106}
{"sequence": "AGTTCCTG", "PBM E-score": -0.18}
{"sequence": "CATTGAGA", "PBM E-score": 0.021}
{"sequence": "GGATTCCC", "PBM E-score": -0.173}
{"sequence": "GGGTTAAC", "PBM E-score": 0.169}
{"sequence": "AGCAAACA", "PBM E-score": -0.00612}
